From ChEMBL document CHEMBL3988442, “University of Dundee, Small-Polar-MMV Screening Library” (2021).

The filed quantity is “Percent Effect” (%).
The record does not define 0% and 100%; most values in the screen are far below 50% and negative numbers occur (in some assays of this library far below -100).
Compounds were drawn at random from those tested, without regard to their results.
Two or more numbers in one place are separate tests of the same structure; such repeats can differ widely.

A: 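Growth of Mycobacterium tuberculosis over 4 days (cholesterol / DPPC medium with tyloxapol); the read-out is not stated. Compounds at 50 µM. The record gives no direction; compounds that gave an IC50 in retests scored well above the rest, so higher reads as more growth inhibition. Size under these conditions: about 69,000 compounds, about 370 of them at 50% or above in at least one test.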
B: 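Growth of Mycobacterium tuberculosis over 3 days (7H9 medium with glucose and tyloxapol); the read-out is not stated. Tested at 50 µM. The record gives no direction; compounds that gave an IC50 in retests scored well above the rest, so higher reads as more growth inhibition. Of about 69,000 compounds tested this way, about 760 (1.1%) reached 50% or more in at least one test.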

| SMILES | A | B |
|---|---|---|
| `c1ccc2c(c1)nnn2CCCNC1CCOC2(CCOCC2)C1` (centres undefined) | -7.022 | -11.75 |
| `Cc1ccccc1C(=O)N1CCC2(CCCN2CCN(C)C)CC1.O=C(O)C(F)(F)F.O=C(O)C(F)(F)F` | -3.226 & -5.69 | -5.891 |
| `Cc1noc(C)c1CN1CCc2ncc(Cn3cccn3)n2CC1.O=C(O)C(F)(F)F` | -10.77 | -11.61 & -8.403 |
| `CC[C@@]1(O)CCN(C(=O)c2ccc(CN3CCCCCC3)cc2)C[C@H]1O` | -7.493 & -14.47 | -28.69 |
| `c1ccc(CCCN2CCCC(Nc3cnc4ccccc4n3)C2)cc1` (centres undefined) | 22.17 & 20.06 | 50.6 |
| `Cn1ncc2c(=O)[nH]c(CN3CCc4ccccc4C3)nc21` | -6.643 | -27.04 & 1.253 |
| `CN(C)C1(CNC(=O)C/C=C/c2ccc(F)cc2)CCOCC1` | -30.84 | -31.61 |
| `CCCc1nc(CNc2cc(CS(C)(=O)=O)ccc2Cl)no1` | -18.27 & 5.985 | 10.77 & -13.88 |
| `O=C(CCN1CCCC(CC2CC2)(C(=O)O)C1)NC1CCCC1` (centres undefined) | 15.67 | -4.802 |
| `Cl.c1nc(N2CCOCC2)sc1-c1cncn1CCCN1CCCCC1` | -6.351 & 11.16 | -8.332 |
| `O=C(c1ccnnc1)N1CCc2ncnc(C3CCOC3)c2CC1` (centres undefined) | -20.67 & -6.433 | -6.705 |
| `Cc1c(C(=O)N2CCSCC2)sc2nc(C(F)(F)F)ccc12` | 19.76 | 18.5 |
| `O=C(O)C(F)(F)F.O=C(O)C(F)(F)F.O=C(O)C(F)(F)F.[H][C@@]12CCCO[C@]1([H])[C@H](N(C)Cc1ccco1)CN(Cc1ccncc1)C2` | -9.75 | -22.03 |
| `NCCC1CN(Cc2cnc3c(-c4ccccc4)cnn3c2)CCO1` (centres undefined) | 11.14 | 25.15 & 4.437 |
| `Cc1cc(CN2CCN(C(=O)c3ccc(=O)n(C)c3)CC2)no1` | -4.037 | -9.236 |
| `[H][C@@]12CS(=O)(=O)C[C@]1([H])N(Cc1ccc(C)c(C)c1)CCN2C(=O)C1CCC1` | -24.5 | 0.3116 & -21.59 |
| `c1cnn(CC2CCCN2Cc2cn3ccsc3n2)c1` (centres undefined) | -12.2 | 24.04 |
| `N#CC1CCCN(C(=O)Cn2ncc(N3CCCC3)cc2=O)C1` (centres undefined) | -16.54 | 17.98 |
| `FC(F)(F)Cc1noc(CN2CCCC2c2noc(C3CC3)n2)n1` (centres undefined) | -5.678 | 14.2 |
| `CC(=O)N1Cc2ccccc2OC2(CCN(C(=O)C3CCOC3)CC2)C1` (centres undefined) | 0.5781 | -8.696 |
| `[H][C@@]12C[C@H](C(=O)NC)[C@@]([H])(CN(C(=O)Nc3ccc(CC)cc3)C1)O2` | 10.16 | 7.207 |
| `CCc1cc(N2CCS(=O)(=O)CC2)n2nc(C)c(C)c2n1` | -10.08 & 27.11 | 13.04 |
| `Cc1ccc(-c2nc(CNS(=O)(=O)N(C)C)[nH]c2-c2ccccn2)cc1` | 14.78 | 18.63 |
| `CN(C)CCNC(=O)Cc1cccc(I)c1` | -30.9 | -29.52 |
| `c1ccc(-c2nc(CCNc3nnc(C4CCC4)o3)no2)cc1` | 31.05 | 26.77 |
| `[H][C@@]12CCCN1C[C@H](Cc1ccccc1)N(Cc1cnn(CCC)c1C)C2` | 10.06 | 15.36 |
| `O=C(NCc1cccnc1-n1cncn1)c1ccncc1` | -14.66 | -7.677 |
| `CC(NC(=O)c1cc(Br)c2c(c1)OCCO2)C(N)=O` (centres undefined) | -22.77 | -16.17 |
| `CCCS(=O)(=O)CC(=O)N1CCN(CC2CC2)c2ccccc21` | 20.41 | 31.23 |
| `CS(=O)(=O)NCC1CCCN(C(=O)Nc2ccccc2F)C1` (centres undefined) | 24.4 | 11.99 |
| `Cc1ncsc1C(=O)NCc1cc2n(n1)CCN(C(=O)N(C)C)C2` | -5.746 | 9.576 & 2.257 |
| `CN(C(=O)CN(Cc1cccc(O)c1)C1CCC(O)CC1)C1CC1` (centres undefined) | -8.688 & -6.559 | -5.642 & -8.206 |
| `CCN(Cc1ccncc1)CC1(C)Cc2c(N)nc(N)nc2O1` (centres undefined) | 3.238 & 5.01 | -4.891 |
| `Cc1ccc(C)c(CS(=O)(=O)CC(=O)Nc2ccc(F)cc2F)c1` | -24.4 | -31.43 |
| `Cc1cc(C(=O)N2CCC3(CC2)CN(CCN(C)C)C(=O)O3)nc(C)n1` | -4.636 & -15.57 | 12.69 |
| `Cn1c(Cn2ccnc2)nnc1C1CCCN(c2ncccn2)C1` (centres undefined) | 35.68 | 2.576 & 34.59 |
| `Cl.O=C(NC1CCCC1)c1ccnc(C2CCNCC2)c1` | 2.456 & 16.32 | -3.906 |
| `COCCC1(C(=O)O)CCCN(C(=O)c2cnc3c(c2)CCCC3)C1` (centres undefined) | -5.646 | -4.525 & 1.634 |
| `CCN(Cc1ccccc1)C(=O)CCN1C[C@@H](C(=O)O)[C@H](C2CC2)C1` | 19.33 | -14.9 & 15.43 |
| `O=C(O)C(F)(F)F.O=C(O)C(F)(F)F.[H][C@]12CCN(Cc3ccc(C)cc3)[C@@]1([H])C[C@H](C(=O)N1CCN(C)CC1)O2` | -15.36 | -22.28 |
| `Cc1cc(Cc2ccccc2)cc(C2CCCNC2)n1` (centres undefined) | 5.115 | 5.151 |
| `CC(=O)Nc1cnc(Oc2ccccc2F)nc1` | 20.48 | 1.922 & 42.54 |
| `CC(C)(C)c1nc(C(C)(C)NC(=O)C2CC(=O)N(CC3CC3)C2)no1` (centres undefined) | 0.5826 | -4.46 & -51.69 |
| `COc1ccccc1OCCC(=O)NC1CCc2nc(C)cn2C1` (centres undefined) | -12.44 & -12.45 | -31.85 |
| `Cc1ncsc1CCCn1ccnc1-c1cc2n(n1)CCCNC2` | 8.067 | 2.753 & 15.24 |
| `[H][C@]12CCC[C@@]1(COC)CN(C(=O)CCOC)C2` | 10.28 | 21 |
| `COCC(=O)NCc1nn(CCN2CCCC2)c(=O)c2ccccc12` | 0.3321 | -5.026 |
| `COCCN1CCOCC12CCN(c1cnccn1)CC2.O=C(O)C(F)(F)F` | -13.16 | 14.53 |
| `CC(O)CN1CCN(C(=O)c2ccc(CN(C)C)cc2)CC1` (centres undefined) | -12.08 | -22.3 |
| `COc1ccc(CN[C@@H]2CO[C@H](CNC(=O)NC(C)C)[C@H]2O)cc1` | 10.04 | -7.728 & 5.213 |
| `Clc1cncc(N2CCN(Cc3ccon3)CC2)n1` | -5.519 | 6.233 |
| `O=S(=O)(Nc1ccc(N2CCOCC2)cn1)c1cccc(F)c1` | 12.38 | 13.18 & 6.756 |
| `O=C(O)C(F)(F)F.[H][C@]12CN(Cc3cccc(Cl)c3)C[C@@]1([H])S(=O)(=O)CC[C@@H]2C(=O)NCC(C)C` | -5.178 & 0.3336 | -12.81 |
| `NC(=O)N1CC[C@H](O)[C@@H]1Cc1ccccc1` | 0.2777 & 0.4068 | 7.458 |
| `CC(C)Cc1noc(CN2CCC(C(=O)NCC3CCCO3)CC2)n1` (centres undefined) | -18.53 | -19.76 |
| `Cc1ccc(C(=O)N2CCC3(CC2)CCN(CCN(C)C)C3=O)cn1.O=C(O)C(F)(F)F.O=C(O)C(F)(F)F` | 14.73 | 15.49 |
| `CC(C(=O)N1CCCN(Cc2cnn(C(C)C)c2)CC1)n1ccnc1` (centres undefined) | -14.83 | -6.227 & -53.47 |
| `[H][C@]12CC[C@]([H])(CN(CC(=O)N(C)C)C1)N(Cc1c(Cl)cncc1Cl)C2` | -3.769 | -4.567 |
| `Cc1ncc2c(c1CNC(=O)C1(C)CCCCO1)CCNC2` (centres undefined) | -10.2 | -7.835 |
| `COCCCN(C)Cc1nc2c(cnn2C)c(=O)[nH]1` | -4.41 | -7.723 |
| `CC(C)c1nnc(CNc2ccc(SC(F)(F)F)cc2)o1` | 52.82 | 20.58 |
| `CCC(C)NC(=O)CCn1ccc(C)n1` (centres undefined) | -7.145 | 6.385 |
| `O=C(Cc1ccn[nH]1)N1CCc2cc(Br)sc2C1` | -0.204 & -9.286 | 26.09 |
| `CN(CC1COc2ccccc2O1)C(=O)NCCCn1cncn1` (centres undefined) | 0.3903 | 9.654 |
| `CN1CC(C(=O)NCc2ccc(Br)cc2F)CC1=O` (centres undefined) | 0.9992 | 10.75 |
| `OC1(CN2CCCC2)COCCN(c2nnc(-c3ccccc3)s2)C1` (centres undefined) | 6.815 | 0.7041 & 17.61 |
| `CC(=O)Nc1ncc(S(=O)(=O)Nc2ccc3c(c2)OCCO3)s1` | -18.92 | 3.132 |
| `Cc1nc(C2CCCN2CCS(C)(=O)=O)no1` (centres undefined) | -22.16 | -18.73 |
| `CC(C)(C)c1cc(C(=O)N2CCC(c3cnccn3)CC2)[nH]n1` | -2.295 & 6.482 | 9.104 |
| `CS(=O)(=O)NCCCN1CCCC1c1ccccc1` (centres undefined) | 16.71 | 4.85 |
| `CN(c1ccc(F)c(F)c1)S(=O)(=O)c1cc(C(=O)O)cs1` | 10.87 | 4.712 |
| `COc1ccccc1-c1ccc(C2CCCN(C(C)=O)C2)nc1` (centres undefined) | 10.87 & 10.09 | -10.29 |
| `CCOc1ncccc1NC(=O)N1CCCC(CNC(N)=O)C1` (centres undefined) | 1.414 | -0.09187 |

The first 8 entries again:

SMILES,A,B
c1ccc2c(c1)nnn2CCCNC1CCOC2(CCOCC2)C1 (centres undefined),-7.022,-11.75
Cc1ccccc1C(=O)N1CCC2(CCCN2CCN(C)C)CC1.O=C(O)C(F)(F)F.O=C(O)C(F)(F)F,-3.226 & -5.69,-5.891
Cc1noc(C)c1CN1CCc2ncc(Cn3cccn3)n2CC1.O=C(O)C(F)(F)F,-10.77,-11.61 & -8.403
CC[C@@]1(O)CCN(C(=O)c2ccc(CN3CCCCCC3)cc2)C[C@H]1O,-7.493 & -14.47,-28.69
c1ccc(CCCN2CCCC(Nc3cnc4ccccc4n3)C2)cc1 (centres undefined),22.17 & 20.06,50.6
Cn1ncc2c(=O)[nH]c(CN3CCc4ccccc4C3)nc21,-6.643,-27.04 & 1.253
CN(C)C1(CNC(=O)C/C=C/c2ccc(F)cc2)CCOCC1,-30.84,-31.61
CCCc1nc(CNc2cc(CS(C)(=O)=O)ccc2Cl)no1,-18.27 & 5.985,10.77 & -13.88